# Results: patent US6440996B1, “Monomeric and dimeric heterocycles, and therapeutic uses thereof” (priority 1998, dated 2002)
# Sequences of proteins named here, by UniProt entry; tags and fusion partners are left off.
# UniProt P23977, whole entry: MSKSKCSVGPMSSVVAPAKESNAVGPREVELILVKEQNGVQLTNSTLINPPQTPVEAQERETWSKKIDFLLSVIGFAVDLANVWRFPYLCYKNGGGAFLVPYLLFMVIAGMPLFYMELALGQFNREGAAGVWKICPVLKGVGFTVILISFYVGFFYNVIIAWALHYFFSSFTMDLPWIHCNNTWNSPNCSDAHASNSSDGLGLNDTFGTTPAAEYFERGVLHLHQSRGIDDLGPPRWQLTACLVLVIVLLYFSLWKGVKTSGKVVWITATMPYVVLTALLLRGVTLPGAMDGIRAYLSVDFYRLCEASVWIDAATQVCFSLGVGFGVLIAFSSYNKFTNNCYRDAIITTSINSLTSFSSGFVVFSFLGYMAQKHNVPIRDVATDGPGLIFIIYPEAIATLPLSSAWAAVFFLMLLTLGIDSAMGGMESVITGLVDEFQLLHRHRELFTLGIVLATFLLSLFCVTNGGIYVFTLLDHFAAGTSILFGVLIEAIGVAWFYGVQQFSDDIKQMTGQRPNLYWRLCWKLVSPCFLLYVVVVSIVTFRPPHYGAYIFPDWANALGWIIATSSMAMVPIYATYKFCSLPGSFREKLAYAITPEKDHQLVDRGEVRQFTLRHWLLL
# Certain results were filed several times, with different values. This is not the full list of results. An entry can have further records. Values that stand side by side differ for a reason that is not stated; they may come from other doses, times, organisms or constructs than stated.
# Biological target: dopamine transporter (Rattus norvegicus, UniProt P23977)
# Experiment: [3H]WIN 35,428 binding to rat striatal membranes / dopamine transporter binding (DAT)
# Conditions: read-out: DAT IC50 (nm); Table 2
compound,measurement,value
"CCC[C@@H]1CN(C)CC[C@H]1c1ccc(Cl)cc1 (single isomer, unassigned)",IC50,17 nM and 55 nM
